Measured values reported in US20230250160A1 (HOBER BIOTECH, published 2023).
Results are given in words; binding and its absence hold for the method and conditions named. Binding can be weak; no strength is given.

Chains of the proteins cited; added tags and fusions are not shown. Lines headed by an entry give the natural chain unless they say otherwise; changes in a name come on top.
UniProt P01308: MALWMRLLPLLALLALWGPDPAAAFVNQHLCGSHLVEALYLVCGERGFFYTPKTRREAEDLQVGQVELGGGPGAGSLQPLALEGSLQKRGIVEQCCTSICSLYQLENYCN

Key:
[1] = target: T1, Human recombinant Insulin (human, UniProt P01308 25-54; P01308 90-110, limits assumed); assay: SPR (Biacore), ADAPT preincubated with a molar excess of HSA, injected at 31.25-500 nM over immobilised insulin
T1 construct: also called bInsulin

[2] = target: T1, Human recombinant Insulin; assay: size-exclusion chromatography of HSA, ADAPT and insulin mixed 1:1:1
[3] = target: T1, Human recombinant Insulin; assay: SPR; also still binds insulin after incubation with saturating HSA
[4] = target: T1, Human recombinant Insulin; assay: SPR capture assay, ADAPT captured on HSA, target injected
[5] = target: T1, Human recombinant Insulin; assay: SPR sensorgrams, FIG. 2A; also after saturation with HSA, FIG. 2B
[6] = target: T1, Human recombinant Insulin; assay: SPR capture assay, ADAPT variant captured on immobilised HSA, then 500 nM insulin injected
[7] = target: T1, Human recombinant Insulin; assay: analytical SEC (Superdex 75 5/150), samples mixed 1:1 or 1:1:1 and injected, overlaid with the single partners
[8] = target: T1, Human recombinant Insulin; assay: phage display selection after two panning rounds; simultaneous binding of Insulin and albumin
[9] = target: T1, Human recombinant Insulin; assay: SPR (Biacore), ADAPT injected alone at 31.25-500 nM over immobilised insulin
[10] = target: T1, Human recombinant Insulin; assay: SPR multi-cycle analysis

Measured: binding

LAIAKAYAQYELSFYGVSDFYRELIVKAKTVEGVEALKLHILAALP (designed binder, also called INS_02) [ADAPT variant Insulin_02]
not listed: [10]
binds: all other assays above

LAVAKAYAKYELAFYGVSDFYNELILKAKTVEGVEALKLHILAALP (designed binder, also called INS_03) [ADAPT variant Insulin_03]
binds: [4] | [10] | [6] | [8]

LVIAKAYAQYELAFYGVSDFYSDLIKKAKTVEGVEALKLHILAALP (designed binder, also called INS_01) [ADAPT variant Insulin_01]
binds: [4] | [10] | [6] | [8]
